Some of the results follow. No stated cut-off is given here; in the data, active = 150% or more and inactive = the rest. Many values rest on one well or one pass, so single values are uncertain.
test system: Staphylococcus aureus JE2-lux inside RAW 264.7 macrophages; test: intracellular bacterial bioluminescence relative to DMSO vehicle; higher = higher intracellular bacterial metabolic activity; conditions: 10 µM; treatment time 4 h; gentamicin 50 µg/ml

Intracellular bacterial bioluminescence, inactive:
CS(=O)(=O)c1cc([N+](=O)[O-])c(Sc2nc3ccccc3o2)c([N+](=O)[O-])c1 53.5%
CCc1ccc(NC(=O)CCc2nc(-c3nn(-c4ccc(Cl)cc4)c(=O)n(C)c3=O)no2)cc1 42.1%
COc1ccc(-c2cnc3c(-c4ccccc4)c(C)nn3c2N)cc1OC 94.3%
COc1ccc(OC)c(NC(=O)C2=C(C)NC(=S)NC2c2ccc(C(C)C)cc2)c1 (configuration not stated) 49.3%
O=C1Nc2ccc(Br)cc2/C1=C1/SC(=S)N(C(Cc2ccccc2)C(=O)O)C1=O (configuration not stated) 75.2%
O=C(CN1C(=O)c2ccccc2S1(=O)=O)Nc1ccon1 89.6%
CCc1cccc(C)c1NC(=O)CSc1nnc(-c2ccncc2)o1 102%
CCOC(=O)c1ccc2c(c1)s/c(=N/C(=O)c1cccc(S(=O)(=O)CC)c1)n2CC 113%
Cc1ccc2sc(N(CCCn3ccnc3)C(=O)c3ccco3)nc2c1C 94.5%
Cn1c2ccc(F)cc2c2nnc(SCC(=O)NC3CCCCC3)nc21 101%
O=c1c(SCc2ccc(Cl)cc2)nccn1-c1ccc(F)cc1 102%
O=C(NCCc1nc2cccnc2n1C1CCCC1)NCc1ccco1 86.1%
CCN(CC)C(=O)c1cnc2ccc(Cl)cc2c1O 130%
COc1cccc(-n2c(=O)[nH]c3c(C(N)=O)nc(-c4ccccc4Cl)nc32)c1 71.9%
CCOc1ccc(-n2c(C)c(C)c3c2ncn2ncnc32)cc1 93.2%
Cc1cc2oc(C(=O)Nc3ccccc3F)c(C)c2cc1C 104%
CNS(=O)(=O)c1cc(-c2cc(C(=O)Nc3ccc(C(C)C)cc3)n[nH]2)ccc1OC 82.6%
COc1ccc(C(=O)Nc2sc3c(c2C(N)=O)CC(C)CC3)cc1OC (configuration not stated) 96.1%
Cc1nn2c(C(F)(F)F)cc(-c3ccncc3)nc2c1-c1ccc(Cl)cc1 104%
Cc1cc(NC(=O)Cc2ccccc2)nc2c1c(=O)oc1ccccc12 73.5%
Cc1ccc(NC(=O)c2cnc3n(c2=O)CCS3)c(Br)c1 118%
COCCCn1c(-c2ccc(Br)cc2)nc(=S)c2c1CCCC2 120%
O=C(NNC(=O)c1cc2ccccc2oc1=O)c1ccccc1 120%
Cc1ccc(Nc2c(C(=O)N3CCN(c4cccc(Cl)c4)CC3)cnc3c2c(C)nn3C)cc1 30.8%
CN1CCN(n2c3c(c(SCC(=O)NCc4ccc5c(c4)OCO5)nc2=O)CCCC3)CC1 98.1%
O=C(Nc1ccc(I)cc1)c1cc2cc(Cl)ccc2oc1=O 77.7%
CCCc1c(C)nc(N2CCN(c3ccc(F)cc3)CC2)[nH]c1=O 104%
O=C(Cn1cc(C(=O)c2ccc(Cl)cc2)c(=O)c2cc3c(cc21)OCCO3)Nc1ccc(F)cc1 100%
COCCOC(=O)Cn1nc2c3c(C)c(C)sc3nc(C)n2c1=O 87.4%
Cc1nc(NC(=O)CSc2nc3ccccc3n2CC(=O)NC(C)(C)C)sc1C 99.2%
Cc1cc(SCc2ccccc2F)nc(=O)[nH]1 128%
COc1cccc(NC(=O)CSc2nccn(-c3ccc(OC)c(Cl)c3)c2=O)c1 89.6%
COCCNC(=O)C(=O)Nc1ccc2c(c1)CCCN2C(=O)c1cccs1 77%
O=C(CS(=O)(=O)c1c[nH]c2ccccc12)NC1CCCCC1 113%
CN1CCc2cc(C(CNC(=O)Cc3ccc(-c4ccccc4)cc3)N3CCOCC3)ccc21 (configuration not stated) 105%
CC(CCc1ccccc1)NC(=O)c1ncoc1-c1ccccc1F (configuration not stated) 30.5%
O=C(NCC1CCCO1)C(=O)Nc1cc2c3c(c1)CCC(=O)N3CCC2 (configuration not stated) 123%
O=C(N/N=C\c1cccnc1)c1n[nH]c2c1CCCC2 138%
Cc1c(NC(=O)CN2C(=O)C(=O)c3ccccc32)c(=O)n(-c2ccccc2)n1C 103%
COc1cc(C(=O)Nc2c[nH]c3ccccc23)c2ccccc2n1 135%
COc1ccc(-c2csc3ncnc(NCCCO)c23)cc1 127%
CN1CCOc2ccc(NC(=O)c3ccc(F)cc3)cc2C1=O 99.4%
CCCCOc1ccc(CNC(=O)C2CCN(c3ccc4nnc(C)n4n3)CC2)cc1 51.4%
COc1ccc(C(=O)Nc2nc(CC(=O)NCc3cccnc3)cs2)cc1 109%
COc1ccc(Cl)cc1NS(=O)(=O)c1cc2c3c(c1)C(C)C(=O)N3CCC2 (configuration not stated) 109%
Cc1cccc2c(C(=O)Nc3cccc(C(=O)N4CCCCC4)c3)cc(O)nc12 118%
Cc1nc(NCCC2=CCCCC2)c2onc(-c3ccccc3)c2n1 54.9%
O=C(NCCCN1CCOCC1)c1cc(-c2ccccc2)nc2n[nH]c(-c3ccc(F)cc3)c12 106%
CC(C)CNC(=S)N1CCC(n2cnc3cc(F)ccc32)CC1 125%
COC(=O)c1[nH]c(C)c(C(=O)C2=C(O)C(=O)N(CCN(C)C)C2c2ccncc2)c1C (configuration not stated) 102%
Cc1nonc1CC(=O)NCCn1nc2c(C)cc3ccccc3n2c1=O 95.5%
O=C(CSc1nc(=O)[nH]c2c1CCC2)c1ccc(F)cc1 104%
O=c1[nH]c(=O)c2cc(S(=O)(=O)Nc3ccccc3-c3ccccc3)ccc2[nH]1 114%
O=C(NCc1ccccc1)C(c1cccs1)N(C(=O)c1ccccn1)c1ccccc1F (configuration not stated) 63.8%
Cn1c(=O)c2c(SCC(=O)Nc3ccc(F)cc3)nc(-c3cccs3)nc2n(C)c1=O 99%
CCOc1ccc(S(=O)(=O)N2CCN(c3cc(Nc4ccc(C)cc4)nc(C)n3)CC2)cc1 92.7%
C=CCOCC(O)Cn1c(N2CCN(Cc3ccccc3)CC2)nc2c1c(=O)[nH]c(=O)n2C (configuration not stated) 88.3%
O=c1[nH]c(=O)n(C2CC(O)C(CO)O2)cc1I (configuration not stated) 110%
Cc1ccc(NC(=O)Nc2c(-n3cnnc3)nn(C)c2C)cc1 114%
Cc1nc(CNS(=O)(=O)c2cc([N+](=O)[O-])ccc2C)cs1 98.6%
COc1ccc([N+](=O)[O-])cc1NC(=O)c1ccccc1NS(=O)(=O)c1ccccc1 95.9%
O=C1C=C/C(=N\Oc2ccc([N+](=O)[O-])cc2[N+](=O)[O-])c2cccnc21 19.3%
COCCn1ccc2nc(C)c(C(=O)Nc3cc(OC)cc(OC)c3)cc2c1=O 88.3%
Cc1oc2ncnc(Oc3ccccc3F)c2c1C 126%
COc1ccc(C2NC(=S)NC(C)=C2C(=O)Nc2ccc(F)c(F)c2)cc1OC (configuration not stated) 101%
O=C(Nc1nc2c(Cl)c(Cl)ccc2s1)c1cc2ccccc2oc1=O 102%
COc1ccc(-c2ocnc2C(=O)N2CCC(C(N)=O)CC2)cc1OC 101%
COC(=O)c1ccccc1NC(=O)c1cnc2c(-c3ccccc3)c(C)nn2c1C 113%
O=C(NCc1cccnc1)c1ncoc1-c1cccc(Cl)c1 86.2%
CSc1ccccc1NC(=O)c1cnc2n(c1=O)CCS2 92.4%
O=C(CSc1nc(-c2ccccc2)c2ccccc2n1)NCc1ccc2c(c1)OCO2 73.9%
Cn1ncc2c(NCc3ccccc3)nc(NC3CCCC3)nc21 92.3%
Clc1ccc(Cl)c2sc(N3CCOCC3)nc12 85.4%
COc1ccccc1OCCN(C)C(=O)c1sc2ncn(C)c(=O)c2c1C 98.9%
O=c1nc(SCc2c(F)cccc2Cl)c2c([nH]1)CCC2 122%
CCOC(=O)c1c(C)oc2c1cc(NS(=O)(=O)c1cccc3cccnc13)c1ccccc12 76.6%
CCc1cccc(CC)c1NC(=O)CSc1nnc(NC(=O)c2ccco2)s1 112%
O=C(c1ccc(-c2nc(-c3ccccc3)no2)cc1)N1CCn2c1nc1ccccc12 93.9%
CC(C(=O)N1CCOCC1)C1CCN(C(=O)c2cc3ccccc3[nH]2)CC1 (configuration not stated) 72.7%
N#Cc1cc2cc3c(cc2nc1SCC(=O)NCC1CCCO1)OCCO3 (configuration not stated) 113%
CCc1c(C)nc(SCC(=O)Nc2cc(C)on2)[nH]c1=O 83.4%
CCOC(=O)c1sc(NC(=O)c2cccc(C)c2)cc1C 68.2%
Cn1c(SCC(=O)Nc2nc3ccccc3s2)nnc1-c1ccccc1 89.6%
Cc1ccc(NC(=O)CCN2C(=O)/C(=C\c3ccco3)SC2=S)c(C)c1 113%
O=C(CSc1nc(=O)n(CC2CCCO2)c2c1CCCC2)Nc1ccc([N+](=O)[O-])cc1 (configuration not stated) 71.5%
COc1ccc(CN2CC3=C(C2=O)C(c2ccc(Cl)cc2)NC(=O)N3)cc1 (configuration not stated) 5.7%
Cc1cc2nnc(SCC(=O)Nc3ccc4c(c3)OCO4)n2c2ccccc12 56.6%
N#C/C(=C/c1ccc(Cl)cc1)C(=O)Nc1sc2c(c1C(N)=O)CCCC2 119%
CCOc1ccc(C)cc1S(=O)(=O)Nc1ccc2c(c1)C(=O)Nc1ccccc1O2 130%
O=C(OC(C(=O)NCc1ccc(F)cc1)c1ccc2ncccc2c1)c1cccs1 (configuration not stated) 94.2%
O=c1c2cnn(CCO)c2ncn1Cc1ccccc1Cl 112%
CCOc1ccc(Cn2c(=O)c3sccc3n3c(=S)[nH]nc23)cc1OCC 128%

A portion of the results above, as a working copy:
Intracellular bacterial bioluminescence, inactive:
COc1ccc(-c2csc3ncnc(NCCCO)c23)cc1 127%
CN1CCOc2ccc(NC(=O)c3ccc(F)cc3)cc2C1=O 99.4%
CCCCOc1ccc(CNC(=O)C2CCN(c3ccc4nnc(C)n4n3)CC2)cc1 51.4%
COc1ccc(C(=O)Nc2nc(CC(=O)NCc3cccnc3)cs2)cc1 109%

From the supplement of paper PMC12578635
